The results in this text go back to article PMC5573678.

For this test, the target named is endogenous STING of NR9456 macrophages (mouse (endogenous in NR9456)). Description: proximity ligation; Duolink in situ PLA in NR9456-IFI205myc or NR9456 cells, fixed with 4% paraformaldehyde and permeabilised with 0.5% Triton X-100; anti-myc, anti-AIM2 and anti-STING primary antibodies; also after siRNA knockdown of Trex1, Aim2 or Ifi205.

These are yes or no findings as the source states them, for the method shown. In cells and extracts the contact can be indirect. Binding can be weak; no strength is given. Tags and fused reporters may be left off the sequences shown.

B1: endogenous AIM2 of NR9456 macrophages (protein, UniProt Q91VJ1 1-354)
chain: MESEYREMLLLTGLDHITEEELKRFKYFALTEFQIARSTLDVADRTELADHLIQSAGAASAVTKAINIFQKLNYMHIANALEEKKKEAERKLMTNTKKRGTQKVENRSQAENCSAASATRSDNDFKEQAATEVCPQAKPQKKQMVAEQEAIREDLQKDPLVVTVLKAINPFECETQEGRQEIFHATVATETDFFFVKVLNAQFKDKFIPKRTIKISNYLWHSNFMEVTSSSVVVDVESNHEVPNNVVKRARETPRISKLKIQPCGTIVNGLFKVQKITEEKDRVLYGIHDKTGTMEVLVLGNPSKTKCEEGDKIRLTFFEVSKNGVKIQLKSGPCSFFKVIKAAKPKTDMKSVE
With B1, the binding result was “binds”.

B2: myc-tagged IFI205 (IFI205myc), stably expressed in NR9456 macrophages (protein, UniProt Q8CGE8 1-404)
chain: MENEYKRLVLLEGLECINKHQFNLFKSLMVKDLNLEEDNQEKYTTFQIANMMVKKFPADAGLDRLINFCERVPTLKKRAEILKKERSEVTEETSLEINRQEASPATPTSTTSHMLASERGKTSTTQEETSTAQKRKGMSEEKTDVKKIKASGKADQPPCCEGPTATCQSPISQVSSSASSNIPSAKNQKSQPQNQNIPRGAVLHSEPLTVMVLTATDPFEYESPEHEVKNMFHATVATVSQYFHVKVFNIDLKEKFTKNNFITISNYFESKGILEINETSSVLEAAPKQMIEVPNCITRNANASPKICDIQKGTSGTVFYGVFTLHKKKVKTQNTSYEIKDGSGSIEVVGSGQWHNINCKEGDKLHLFCFHLKRERGQPKLVCGDHSFVKVTKAGKKKEASTVQ
Regarding B2, the binding result was “binds”.
